The target in this test is prostate stem cell antigen (PSCA), transgenic on PC3^PSCA-derived feeder cells (human) (UniProt O43653). The test can be described thus: flow cytometry on PSCA-positive PC3^PSCA-derived feeder cells.

Protein sequences, listed by entry. Tags and fused reporters are not part of them. Lines headed by an entry give the natural chain unless they say otherwise; changes in a name come on top.
UniProt O43653: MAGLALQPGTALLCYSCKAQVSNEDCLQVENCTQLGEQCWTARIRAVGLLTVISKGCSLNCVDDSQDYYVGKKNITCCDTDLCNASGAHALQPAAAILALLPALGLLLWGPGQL

These are yes or no findings as the source states them, for the method shown. Some entries that bind do so weakly or less than the wild type.

B1: biotinylated anti-PSCA scFv (scFv(AM1)-P-BAP) (scFv, not shown: small tags and cut ends)
scFv: DAAQPARRARRTKLGTELGSQVKLQESGGGLVQPGGSLKLSCVASGFTFSSYTMSWVRRTPEKRLEWVAYIHNGGGHTYYPDTIKGRFTISRDNAKNTLFLEMSSLKSEDTAMYYCTRRMYYGNSHWYFDVWGAGTSVTVSSAKTTPPSVYGGGGSGGGGSGGGGSTNSDIVMTQSPSSLSASLGDRVTINCRTSQDISNYLNWYQLTPDGTVKLLIYYTLKLNSGVPSRFSGSGSGTDYSLTINNLEKEDFATYFCQQSKTLPWTFGGGTKLEIKRADAAPTVSGP
modifications: biotinylated (biotin acceptor peptide)
On to B1, for which the binding entry is listed as “binds”.

For the origin of these results see patent publication US20210355446A1.
